Values quoted from earlier work, collected in US10976314B2, “Device, non-transitory computer-readable storage medium, and method for determining type of target peptide” (SYSMEX CORPORATION, priority 2014, dated 2021).
For at least one compound, name, drawing or mass did not settle the structure. Peptide text beside a SMILES is read from it.

Details: Table 5; cited from earlier work

NC(N)=NCCC[C@H](NC(=O)[C@H](Cc1ccccc1)NC(=O)[C@@H]1CCCN1C(=O)[C@H](CO)NC(=O)[C@H](Cc1ccccc1)NC(=O)CNC(=O)[C@@H]1CCCN1C(=O)[C@@H]1CCCN1C(=O)[C@@H](N)CCCN=C(N)N)C(=O)O [Bradykinin] (H-RPPGFSPFR-OH)
Isoelectric point: 12
